Assay results: patent US20050137807A1, “Method of visualization of the ADME properties of chemical substances” (priority 2003, published 2005)

Chains of the proteins cited; added tags and fusions are not shown. Residues count along the entry.
UniProt P02768, 25-609: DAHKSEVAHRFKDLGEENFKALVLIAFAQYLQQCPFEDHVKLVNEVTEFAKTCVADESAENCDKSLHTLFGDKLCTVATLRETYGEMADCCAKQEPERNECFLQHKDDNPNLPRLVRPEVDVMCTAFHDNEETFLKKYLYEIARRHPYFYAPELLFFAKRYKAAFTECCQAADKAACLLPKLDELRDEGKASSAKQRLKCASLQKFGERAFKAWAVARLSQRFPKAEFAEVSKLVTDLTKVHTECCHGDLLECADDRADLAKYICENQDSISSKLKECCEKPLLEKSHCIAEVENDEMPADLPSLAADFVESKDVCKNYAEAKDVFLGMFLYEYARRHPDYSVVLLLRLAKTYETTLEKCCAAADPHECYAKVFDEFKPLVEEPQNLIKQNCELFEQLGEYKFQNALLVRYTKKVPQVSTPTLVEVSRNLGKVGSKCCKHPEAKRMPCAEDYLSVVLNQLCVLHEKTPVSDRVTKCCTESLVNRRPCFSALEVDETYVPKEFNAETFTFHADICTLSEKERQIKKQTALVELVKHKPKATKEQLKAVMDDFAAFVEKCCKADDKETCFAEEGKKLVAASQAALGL

Experiments:
human serum albumin = human serum albumin (Homo sapiens, UniProt P02768); test: binding constant to human serum albumin (TRANSIL technology); conditions: log binding constant to human serum albumin
From the text: The effective molecular weight (MW) is obtained simply from the respective empirical formula of the substance. The waters solubilities and the typical administered dosages of these commercially available products are furthermore known from the literature.
The ADME maps in FIGS. 5 to 10 show by way of example a selection of commercially available pharmaceutical substances. The substance names and the associated experimental measurement values for their physicochemical properties are summarised in Table 1.

[1] = membrane affinity as a measure of the lipophilicity (TRANSIL technology); assay type: physicochemical

Row | LogMA [1] | Compound | LogHSA (human serum albumin)
1 |  | COC(=O)C1=C(C)NC(C)=C(C(=O)OC)C1c1ccccc1[N+](=O)[O-] [Nifedipine] | −4.912
2 | 1.519 | CCn1cc(C(=O)O)c(=O)c2cc(F)c(N3CCN(C)CC3)cc21 [Pefloxacin] | 
